Earlier results, collected in patent US20060229308A1, “Substituted pyrirmidin-4-ylamine analogues as vanilloid receptor ligands” (Neurogen Corporation, priority 2003, published 2006).
Some entries share one result that the patent states for a list of compounds. For at least one compound, name, drawing or mass did not settle the structure.

Amino acid sequences for entries named in this document (tags omitted).
UniProt Q8NER1, whole entry: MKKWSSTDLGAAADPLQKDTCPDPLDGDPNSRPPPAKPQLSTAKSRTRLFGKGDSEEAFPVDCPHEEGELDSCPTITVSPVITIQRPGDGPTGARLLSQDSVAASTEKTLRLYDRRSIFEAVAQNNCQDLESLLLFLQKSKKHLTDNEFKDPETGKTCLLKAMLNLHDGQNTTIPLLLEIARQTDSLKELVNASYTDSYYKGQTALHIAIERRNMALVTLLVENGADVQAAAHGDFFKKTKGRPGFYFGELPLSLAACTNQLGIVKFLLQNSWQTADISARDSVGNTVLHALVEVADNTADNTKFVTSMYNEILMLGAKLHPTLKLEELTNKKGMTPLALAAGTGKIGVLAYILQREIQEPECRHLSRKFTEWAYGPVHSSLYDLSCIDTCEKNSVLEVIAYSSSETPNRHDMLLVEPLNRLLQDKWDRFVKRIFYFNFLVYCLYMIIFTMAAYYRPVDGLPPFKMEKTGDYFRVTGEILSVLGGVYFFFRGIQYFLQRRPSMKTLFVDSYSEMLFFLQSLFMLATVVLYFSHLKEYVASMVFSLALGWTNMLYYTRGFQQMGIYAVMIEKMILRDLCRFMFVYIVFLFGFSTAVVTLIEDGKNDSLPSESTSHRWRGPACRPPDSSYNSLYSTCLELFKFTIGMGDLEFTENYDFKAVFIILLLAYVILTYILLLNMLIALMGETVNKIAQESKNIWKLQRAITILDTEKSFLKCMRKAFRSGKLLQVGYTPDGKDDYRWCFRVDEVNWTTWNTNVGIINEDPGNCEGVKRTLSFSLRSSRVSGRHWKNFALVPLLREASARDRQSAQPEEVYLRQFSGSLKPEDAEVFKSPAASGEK

Target: VR (Homo sapiens, UniProt Q8NER1)
Conditions: binding to VR, typical values from background; cited from earlier work

For `Cl.Cl.Cl.Cl.Cl.Cl.N.N.N.N.N.N.N.N.N.N.N.N.N.N.[O-2].[O-2].[Ru+3].[Ru+3].[Ru+4]` [ruthenium red], the Ki is given as ≥ 140 µM.
